The values below come from US20020106729A1.

Sequences of proteins named here, by UniProt entry; tags and fusion partners are left off. Residues count along the entry.
UniProt P06731, residues 35-685: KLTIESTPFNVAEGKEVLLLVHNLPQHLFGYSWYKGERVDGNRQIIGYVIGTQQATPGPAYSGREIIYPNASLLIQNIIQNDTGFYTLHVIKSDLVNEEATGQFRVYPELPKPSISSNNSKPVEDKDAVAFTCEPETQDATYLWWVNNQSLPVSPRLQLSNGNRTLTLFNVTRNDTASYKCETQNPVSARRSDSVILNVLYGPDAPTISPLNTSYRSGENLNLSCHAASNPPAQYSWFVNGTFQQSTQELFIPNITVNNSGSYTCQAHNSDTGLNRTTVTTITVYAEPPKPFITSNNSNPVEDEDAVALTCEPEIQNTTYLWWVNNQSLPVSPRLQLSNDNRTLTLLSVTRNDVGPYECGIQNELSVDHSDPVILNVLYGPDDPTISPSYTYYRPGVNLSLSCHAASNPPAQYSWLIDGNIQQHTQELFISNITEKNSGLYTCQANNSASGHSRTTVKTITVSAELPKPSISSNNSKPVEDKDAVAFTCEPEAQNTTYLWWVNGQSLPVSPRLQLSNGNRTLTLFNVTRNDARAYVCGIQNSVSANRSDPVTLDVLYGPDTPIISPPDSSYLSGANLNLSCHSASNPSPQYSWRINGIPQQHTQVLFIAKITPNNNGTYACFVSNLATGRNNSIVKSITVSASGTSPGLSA

Results are given in words; binding and its absence hold for the method and conditions named. Some binding calls cover weakened binding; strength is not graded here.

In the assay the target is CEA (UniProt P06731). Nature of the assay: CEA binding ELISA on culture media of transduced cells, compared with a human IgG ELISA. For orientation: An ELISA detects its analyte on a solid surface through an enzyme-linked reagent.

B1: MN14 antibody (antibody, V domains shown)
VH: EVQLVESGGGVVQPGRSLRLSCSASGFDFTTYWMSWVRQAPGKGLEWIGEIHPDSSTINYAPSLKDRFTISRDNAKNTLFLQMDSLRPEDTGVYFCASLYFGFPWFAYWGQGTPVTVSS
VL: DIQLTQSPSSLSASVGDRVTITCKASQDVGTSVAWYQQKPGKAPKLLIYWTSTRHTGVPSRFSGSGSGTDFTFTISSLQPEDIATYYCQQYSLYRSFGQGTKVEIKR
As to B1, the binding result is given as “binds”.
